The experiment deals with BDF1 mice, B16 melanoma ip, median survival T/C. As to the kind of experiment: NCI In Vivo Anticancer Drug Screen. Data for tumor model B16 Melanoma (intraperitoneal) in B6D2F1 (BDF1) mice. To be noted: T/C endpoint: median survival time, higher T/C = longer survival. In short, it runs like this:
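Vehicle-treated animals serve as the reference (C); treated animals (T) are scored for survival or tumor size after tumor transplantation.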

The mark [1] stands for this setting: dose: 20.0 mg/kg/injection, schedule: Q01DX009 (ip), vehicle: saline.
[2] abbreviates: dose: 100.0 mg/kg/injection, schedule: Q01DX009 (ip), vehicle: saline with Tween-80.
The mark [3] stands for this setting: dose: 200.0 mg/kg/injection, schedule: Q01DX009 (ip), vehicle: saline with Tween-80.
The mark [4] stands for this setting: dose: 50.0 mg/kg/injection, schedule: Q01DX009 (ip), vehicle: Klucel (hydroxypropylcellulose) (HPC).
Setting [5] is: dose: 400.0 mg/kg/injection, schedule: Q01DX009 (ip), vehicle: saline with Tween-80.

T/C and survivor count data for 16 compounds are collected here from PubChem BioAssay AID192 (DTP/NCI, 2004).

Molecules are shown by their SMILES. The list is a part of this screen's results and no random one: it is rich in T/C values a quarter to a half above the control, in often repeated tests (any T/C) and in doses without a T/C. Other doses and runs of a compound stand elsewhere. T/C gives the treated animals as a percentage of the vehicle group. Some entries give survivors of the animals treated and no T/C: the source files T/C as zero there, which appears to mark a toxic dose or a test without result, not a measured value. Some survivor counts are full or nearly so, which does not show that the dose was tolerated: survival well below the control is almost never listed, so the zero probably covers shortened survival too. Counts of survivors are from the toxicity check (mostly the fifth day) where no day follows; animals may have died later. Schedules are NCI's codes, read here as Q, the interval in days (D) or hours (H), X, the number of doses. Marks such as (2×) stand for listed records that agree. Some entries were tested several times; their values stand side by side, smallest first. For survival time, this PubChem deposit counts one and a half times the control or more as active, and values a quarter to a half above the control carry no call in these data; other NCI protocols may use other cut-offs.

Regarding `Cc1nc(N)nc(N)c1-c1ccc(Cl)c(Cl)c1`, the T/C reads like this: (dose: 1.5 mg/kg/injection, schedule: Q01DX009 (ip), vehicle: saline with Tween-80) 125 % of control; (dose: 2.5 mg/kg/injection, schedule: Q01DX009 (ip), vehicle: saline) 132 % of control; (dose: 3.0 mg/kg/injection, schedule: Q01DX009 (ip), vehicle: saline with Tween-80) 132 % of control; (dose: 4.0 mg/kg/injection, schedule: Q02DX009 (ip), vehicle: saline with Tween-80) 129 % of control; (dose: 4.5 mg/kg/injection, schedule: Q01DX009 (ip), vehicle: saline with Tween-80) 130 % of control. Besides, the survivor count runs as follows: (dose: 5.0 mg/kg/injection, schedule: Q01DX009 (ip), vehicle: saline with Tween-80) 10 of 10; (dose: 5.0 mg/kg/injection, schedule: Q01DX009 (ip), vehicle: saline) 10 of 10; (dose: 6.0 mg/kg/injection, schedule: Q04DX003 (ip), vehicle: saline with Tween-80) 10 of 10; (dose: 8.0 mg/kg/injection, schedule: Q02DX009 (ip), vehicle: saline with Tween-80) 10 of 10; (dose: 10.0 mg/kg/injection, schedule: Q01DX009 (ip), vehicle: saline) 9 of 10; (dose: 16.0 mg/kg/injection, schedule: Q02DX009 (ip), vehicle: Klucel (hydroxypropylcellulose) (HPC)) 10 of 10. The survivor count is, setting by setting: (dose: 16.0 mg/kg/injection, schedule: Q02DX009 (ip), vehicle: saline with Tween-80) 10 of 10; under setting [1], 10 of 10; under setting [2], 10 of 10; under setting [3], 10 of 10.

Turning to `COC(=O)C1(C(=O)OC)CC1CCl` (stereo not drawn), the survivor count (dose: 400.0 mg/kg/injection, schedule: Q04DX003 (ip), vehicle: saline with Tween-80) is on record as 10 of 10.

With `COc1cc([C@@H]2c3cc4c(cc3C[C@H]3COC(=O)[C@@H]32)OCO4)cc(OC)c1OC`, the survivor count reads like this: under setting [1], 10 of 10; (dose: 40.0 mg/kg/injection, schedule: Q01DX009 (ip), vehicle: saline) 8 of 10.

On to `CCCCCCC1N(Cc2ccccc2N(C)C)CCCN1Cc1ccccc1N(C)C`, for which the survivor count (dose: 300.0 mg/kg/injection, schedule: Q01DX009 (ip), vehicle: saline) was 0 of 6.

For the compound `CN1CCCN(C(c2ccccc2)c2ccc(Br)cc2)CC1` (stereo not drawn), the survivor count was 8 of 10 (dose: 100.0 mg/kg/injection, schedule: Q01DX009 (ip), vehicle: saline); 0 of 10 (dose: 200.0 mg/kg/injection, schedule: Q01DX009 (ip), vehicle: saline); 0 of 10 (dose: 400.0 mg/kg/injection, schedule: Q01DX009 (ip), vehicle: saline).

Consider `CC1(C)OC(CI)C(COS(C)(=O)=O)O1` (stereo not drawn), for which the survivor count under setting [2] is 5 of 10 and the survivor count under setting [3] is recorded as 6 of 10.

Regarding `COC(=O)/C(C)=C/C=C/C(OC)C(OC(N)=O)/C(C)=C/C(C)C(O)C(CC(C)CC1=C(N)C(=O)C=C(N)C1=O)OC` (stereo not drawn), the survivor count (dose: 200.0 mg/kg/injection, schedule: Q01DX005 (ip), vehicle: other) is reported as 10 of 10.

As for `N#CNN=Nc1cc(Cl)c(Cl)c(Cl)c1`, the survivor count (dose: 50.0 mg/kg/injection, schedule: Q01DX009 (ip), vehicle: saline) was 7 of 10.

In the case of `CCCCCCC/C=C/C(=O)OC1C(OC2C(OC(CCCCCCC)CC(=O)OC(CCCCCCC)CC(=O)O)OC(C)C(O)C2O)OC(C)C(O)C1O` (stereo not drawn), under “dose: 100.0 mg/kg/injection, schedule: Q01DX009 (ip), vehicle: Klucel (hydroxypropylcellulose) (HPC)”, the survivor count was 10 of 10.

As to `C=C1Sc2ccccc2N1C`, the survivor count under setting [4] was 5 of 10.

Consider `Ic1ncnc2c1ncn2C1CCCO1` (stereo not drawn), for which the T/C (dose: 12.5 mg/kg/injection, schedule: Q01DX009 (ip), vehicle: Klucel (hydroxypropylcellulose) (HPC)) is 126 % of control; the T/C (dose: 25.0 mg/kg/injection, schedule: Q01DX009 (ip), vehicle: Klucel (hydroxypropylcellulose) (HPC)) is 126 % of control; the T/C under setting [4] was 129 % of control. Further, the survivor count (dose: 400.0 mg/kg/injection, schedule: Q01DX009 (ip), vehicle: Klucel (hydroxypropylcellulose) (HPC)) is 6 of 10.

As to `C=CCN1/C(=C/C=C\c2sc3ccccc3[n+]2CC=C)Sc2ccccc21`, the survivor count (dose: 1.0 mg/kg/injection, schedule: Q01DX009 (ip), vehicle: saline with Tween-80) was 4 of 6.

`CCCCCCCCCNC(=O)Nc1cccc(Cl)c1C`: under setting [3], the survivor count is 10 of 10.

`[N-]=[N+]=CC(=O)CCC(=O)C=[N+]=[N-]`: the T/C was 128 % of control (dose: 0.09 mg/kg/injection, schedule: Q01DX009 (ip), vehicle: other); 128 % of control (dose: 0.2 mg/kg/injection, schedule: Q01DX009 (ip), vehicle: other); 143 % of control (dose: 0.75 mg/kg/injection, schedule: Q01DX009 (ip), vehicle: other); 126 % of control (dose: 0.78 mg/kg/injection, schedule: Q01DX009 (ip), vehicle: other); 142 % of control (dose: 1.5 mg/kg/injection, schedule: Q01DX009 (ip), vehicle: other). The survivor count (dose: 3.0 mg/kg/injection, schedule: Q01DX009 (ip), vehicle: other) was 10 of 10; the survivor count (dose: 3.12 mg/kg/injection, schedule: Q01DX009 (ip), vehicle: other) is 10 of 10; the survivor count (dose: 6.0 mg/kg/injection, schedule: Q01DX009 (ip), vehicle: other) is listed as 10 of 10; the survivor count (dose: 6.25 mg/kg/injection, schedule: Q01DX009 (ip), vehicle: other) was 10 of 10 (2×); the survivor count (dose: 12.5 mg/kg/injection, schedule: Q01DX009 (ip), vehicle: other) was 10 of 10 (2×); the survivor count (dose: 25.0 mg/kg/injection, schedule: Q01DX009 (ip), vehicle: other) was 8 of 10 and 10 of 10. Under “dose: 50.0 mg/kg/injection, schedule: Q01DX009 (ip), vehicle: other”, the survivor count is 9 of 10 and 10 of 10.

Regarding `O=C1C=C(c2ccccc2)C(O)(c2ccccc2)C1` (stereo not drawn), the survivor count under setting [5] is 3 of 10.

Consider `O=[N+]([O-])c1ccc2nc3c(nc2c1)-c1cccc2cccc-3c12`, for which the survivor count under setting [5] was 8 of 10.
